Measured values: US20130079342A1, “HETEROCYCLIC COMPOUNDS AND THEIR USES” (priority 2011, published 2013)
Read-outs that look alike come from different tables or passages of the source. At least one compound was matched to its structure with a doubt left.

Tests used:
neutrophil = conditions: cited from earlier work; for superoxide release: neutrophil
Class I PI 3-kinases = conditions: cited from earlier work
U2OS EGFP-2XFYVE Cells = assay: Class III PI(3)P Assay; format: cell-based; conditions: 10 uM, control
[1] = tested on: MDA MB468 Forkhead-DiversaGFP Cells; assay: Forkhead Translocation Assay; format: cell-based; conditions: 10 uM, control
CHO-IR-AKT1-EGFP Cells = assay: AKT Membrane Ruffling Assay; format: cell-based; conditions: 10 uM, control; 10 ng/mL insulin

Row | Compound | neutrophil migration (neutrophil) | superoxide release (neutrophil) | IC50 (Class I PI 3-kinases; read-out: IC50 against each of these PI 3-kinases) | IC50 (Class I PI 3-kinases; read-out: IC50 against each of the various Class I PI 3-kinases) | PI(3)P on endosomes (U2OS EGFP-2XFYVE Cells) | Forkhead localisation [1] | AKT localisation (CHO-IR-AKT1-EGFP Cells)
1 | O=c1cc(N2CCOCC2)oc2c(-c3ccccc3)cccc12 [LY294002] | block | block | ~1 µM |  |  |  | 
2 | COC[C@H]1OC(=O)c2coc3c2[C@@]1(C)C1=C(C3=O)[C@@H]2CCC(=O)[C@@]2(C)C[C@H]1OC(C)=O [wortmannin] | block | block |  | 0.001 to 0.01 µM | depleted from endosomes | nuclear | cytoplasmic
